This passage reports binding results from publication PMC10449881.

The target in this experiment is T1, hepatocyte cell adhesion molecule (mouse (endogenous in primary astrocyte cultures)) (UniProt Q640R3).
T1 sequence: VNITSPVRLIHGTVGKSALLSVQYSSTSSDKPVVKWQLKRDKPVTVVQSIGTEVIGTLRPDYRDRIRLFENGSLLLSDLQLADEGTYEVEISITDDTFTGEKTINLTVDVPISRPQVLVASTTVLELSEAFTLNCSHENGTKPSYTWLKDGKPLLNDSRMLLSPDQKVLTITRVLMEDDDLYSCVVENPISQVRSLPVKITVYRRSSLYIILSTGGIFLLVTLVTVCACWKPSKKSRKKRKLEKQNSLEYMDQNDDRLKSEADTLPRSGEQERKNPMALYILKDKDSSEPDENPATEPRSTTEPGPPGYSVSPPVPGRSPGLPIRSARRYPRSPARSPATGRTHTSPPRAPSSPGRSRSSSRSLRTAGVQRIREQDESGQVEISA
In words: co-IP; anti-HepaCAM (Affinity Biosciences DF12075) coupled to Dynabeads M-270 Epoxy, incubated overnight at 4 °C; astroglial cell lysate; immunoblot for ApoE; mouse IgG1 beads as control. A general note: A western blot detects proteins with antibodies after separation by electrophoresis.

These are yes or no findings as the source states them, for the method shown. In cells and extracts the contact can be indirect.

B1: apolipoprotein E (protein, UniProt P08226 19-311)
chain: EGEPEVTDQLEWQSNQPWEQALNRFWDYLRWVQTLSDQVQEELQSSQVTQELTALMEDTMTEVKAYKKELEEQLGPVAEETRARLGKEVQAAQARLGADMEDLRNRLGQYRNEVHTMLGQSTEEIRARLSTHLRKMRKRLMRDAEDLQKRLAVYKAGAREGAERGVSAIRERLGPLVEQGRQRTANLGAGAAQPLRDRAQAFGDRIRGRLEEVGNQARDRLEEVREHMEEVRSKMEEQTQQIRLQAEIFQARLKGWFEPIVEDMHRQWANLMEKIQASVATNPIITPVAQENQ
Turning to B1, the binding entry is “no binding”.
